± gives the standard deviation of the averaged measurements. The reference is the same well before dosing, and untreated signal decays as well.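 Fibroblast labels name human fibroblasts: mostly primary ones from tissues such as uterus (C12385, HUF), lung (H6013), bone (Hs27A), adrenal (HADF) and skin (WS1), plus mammary HMF and breast cancer-associated Hs343T. The cancer cells are basal-like or mesenchymal-like triple-negative breast cancer lines. The paper calls a changed response a hit when it shifts by more than 3x the replicate standard deviation. The tissue of the other fibroblasts is not given here.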
Test system: HCC1143
Test: relative JC-1 red fluorescence (viability) vs pre-drug, coculture with fibroblast (fraction); higher = more viable cancer cells
Method: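 JC-1 labelled TNBC cells cocultured 1:1 (1,500 cells each) with CellTrace Violet stained primary or stromal fibroblasts in 384-well plates in FluoroBrite medium, treated with one of 42 anticancer drugs at 0.1, 1, 10 or 100 uM. JC-1 red fluorescence (mitochondrial integrity in cancer cells only) was read by plate reader every 8 h for 72 h. Values are normalised to each well's pre-drug value. The stock of one drug was tenfold lower, so its dose labels may be too high.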

Nc1ccn([C@@H]2O[C@H](CO)[C@@H](O)C2(F)F)c(=O)n1 [Gemcitabine]
relative JC-1 red fluorescence
Conditions	8 h	16 h	24 h	32 h	40 h	48 h	56 h	64 h	72 h
10 µM, coculture fibroblast: C12385	0.843 ± 0.0074	0.732 ± 0.018	0.654 ± 0.036	0.573 ± 0.035	0.503 ± 0.035	0.449 ± 0.025	0.398 ± 0.032	0.351 ± 0.03	0.328 ± 0.026
10 µM, coculture fibroblast: H6013	0.768 ± 0.012	0.682 ± 0.055	0.642 ± 0.068	0.622 ± 0.08	0.566 ± 0.1	0.564 ± 0.12	0.542 ± 0.13	0.54 ± 0.15	0.514 ± 0.15
10 µM, coculture fibroblast: H6019	0.799 ± 0.021	0.721 ± 0.02	0.656 ± 0.02	0.577 ± 0.018	0.527 ± 0.024	0.486 ± 0.015	0.435 ± 0.016	0.395 ± 0.019	0.363 ± 0.015
10 µM, coculture fibroblast: H6076	0.771 ± 0.014	0.787 ± 0.015	0.707 ± 0.011	0.6256 ± 0.0033	0.6041 ± 0.0035	0.5766 ± 0.0031	0.541 ± 0.013	0.513 ± 0.017	0.5106 ± 0.0026
10 µM, coculture fibroblast: H6231	0.824 ± 0.028	0.8702 ± 0.0053	0.7742 ± 0.0075	0.603 ± 0.08	0.665 ± 0.031	0.626 ± 0.052	0.589 ± 0.056	0.54 ± 0.07	0.514 ± 0.099
10 µM, coculture fibroblast: HADF	0.755 ± 0.04	0.678 ± 0.045	0.665 ± 0.054	0.667 ± 0.063	0.566 ± 0.056	0.536 ± 0.05	0.499 ± 0.034	0.468 ± 0.037	0.442 ± 0.021
10 µM, coculture fibroblast: HCFa	0.84 ± 0.0093	0.7277 ± 0.0059	0.6952 ± 0.0029	0.658 ± 0.013	0.5729 ± 0.0042	0.5571 ± 0.0054	0.5086 ± 0.0018	0.478 ± 0.0024	0.426 ± 0.011
10 µM, coculture fibroblast: HCPF	0.791 ± 0.013	0.8277 ± 0.0019	0.7522 ± 0.0032	0.607 ± 0.017	0.643 ± 0.01	0.592 ± 0.018	0.547 ± 0.01	0.501 ± 0.017	0.481 ± 0.022
10 µM, coculture fibroblast: HHSteC	0.847 ± 0.029	0.766 ± 0.022	0.7313 ± 0.0037	0.6901 ± 0.0064	0.612 ± 0.018	0.585 ± 0.034	0.536 ± 0.043	0.503 ± 0.054	0.453 ± 0.051
10 µM, coculture fibroblast: HMF	0.797 ± 0.015	0.8377 ± 0.0063	0.765 ± 0.032	0.647 ± 0.056	0.677 ± 0.033	0.644 ± 0.028	0.599 ± 0.022	0.5414 ± 0.0043	0.485 ± 0.013
10 µM, coculture fibroblast: HPFa	0.898 ± 0.017	0.809 ± 0.014	0.744 ± 0.017	0.654 ± 0.0071	0.595 ± 0.0063	0.5702 ± 0.0052	0.518 ± 0.018	0.487 ± 0.019	0.459 ± 0.012
10 µM, coculture fibroblast: HUF	0.865 ± 0.014	0.748 ± 0.021	0.688 ± 0.019	0.605 ± 0.026	0.549 ± 0.035	0.519 ± 0.043	0.472 ± 0.038	0.441 ± 0.042	0.418 ± 0.056
10 µM, coculture fibroblast: Hs5	0.851 ± 0.024	0.899 ± 0.024	0.839 ± 0.012	0.777 ± 0.011	0.7072 ± 0.0032	0.6646 ± 0.0061	0.624 ± 0.015	0.591 ± 0.025	0.571 ± 0.055
10 µM, coculture fibroblast: Hs27A	0.723 ± 0.02	0.648 ± 0.0098	0.618 ± 0.015	0.668 ± 0.016	0.546 ± 0.019	0.54 ± 0.024	0.513 ± 0.022	0.5 ± 0.026	0.523 ± 0.015
10 µM, coculture fibroblast: Hs343T	0.824 ± 0.015	0.8142 ± 0.0045	0.739 ± 0.012	0.67 ± 0.033	0.637 ± 0.028	0.602 ± 0.032	0.555 ± 0.043	0.527 ± 0.047	0.496 ± 0.044
10 µM, coculture fibroblast: WS1	0.829 ± 0.016	0.729 ± 0.021	0.666 ± 0.026	0.595 ± 0.042	0.54 ± 0.041	0.494 ± 0.05	0.446 ± 0.058	0.41 ± 0.054	0.374 ± 0.055
100 µM, coculture fibroblast: C12385	0.83 ± 0.0085	0.742 ± 0.017	0.661 ± 0.0083	0.585 ± 0.011	0.518 ± 0.011	0.465 ± 0.02	0.415 ± 0.017	0.375 ± 0.034	0.347 ± 0.036
100 µM, coculture fibroblast: H6013	0.746 ± 0.029	0.6441 ± 0.0049	0.584 ± 0.0097	0.5525 ± 0.0043	0.478 ± 0.013	0.47 ± 0.019	0.446 ± 0.024	0.438 ± 0.024	0.422 ± 0.03
100 µM, coculture fibroblast: H6019	0.835 ± 0.02	0.734 ± 0.018	0.691 ± 0.02	0.622 ± 0.027	0.553 ± 0.025	0.526 ± 0.03	0.483 ± 0.029	0.442 ± 0.028	0.422 ± 0.033
100 µM, coculture fibroblast: H6076	0.7866 ± 0.0073	0.781 ± 0.013	0.727 ± 0.02	0.678 ± 0.04	0.622 ± 0.029	0.609 ± 0.036	0.575 ± 0.042	0.553 ± 0.046	0.555 ± 0.054
100 µM, coculture fibroblast: H6231	0.808 ± 0.014	0.788 ± 0.041	0.701 ± 0.049	0.663 ± 0.043	0.622 ± 0.058	0.596 ± 0.062	0.561 ± 0.073	0.533 ± 0.076	0.512 ± 0.076
100 µM, coculture fibroblast: HADF	0.7328 ± 0.00086	0.6724 ± 0.0048	0.608 ± 0.0095	0.597 ± 0.011	0.4999 ± 0.002	0.4715 ± 0.00067	0.4369 ± 0.0043	0.4075 ± 0.002	0.378 ± 0.0042
100 µM, coculture fibroblast: HCFa	0.768 ± 0.021	0.657 ± 0.025	0.6 ± 0.038	0.57 ± 0.034	0.474 ± 0.049	0.449 ± 0.049	0.399 ± 0.056	0.367 ± 0.055	0.349 ± 0.034
100 µM, coculture fibroblast: HCPF	0.8004 ± 0.0011	0.749 ± 0.0082	0.702 ± 0.0084	0.68 ± 0.025	0.61734 ± 0.0004	0.589 ± 0.009	0.5553 ± 0.0045	0.5307 ± 0.005	0.5264 ± 0.0025
100 µM, coculture fibroblast: HHSteC	0.847 ± 0.029	0.761 ± 0.03	0.729 ± 0.035	0.695 ± 0.015	0.614 ± 0.014	0.583 ± 0.016	0.532 ± 0.018	0.505 ± 0.024	0.455 ± 0.022
100 µM, coculture fibroblast: HMF	0.782 ± 0.0086	0.7983 ± 0.0011	0.725 ± 0.008	0.644 ± 0.021	0.6325 ± 0.0014	0.6079 ± 0.0051	0.557 ± 0.019	0.5145 ± 0.0049	0.484 ± 0.011
100 µM, coculture fibroblast: HPFa	0.914 ± 0.014	0.8192 ± 0.0064	0.775 ± 0.012	0.704 ± 0.028	0.637 ± 0.033	0.612 ± 0.031	0.564 ± 0.023	0.548 ± 0.023	0.522 ± 0.019
100 µM, coculture fibroblast: HUF	0.8707 ± 0.0052	0.781 ± 0.015	0.689 ± 0.023	0.601 ± 0.048	0.539 ± 0.057	0.509 ± 0.071	0.454 ± 0.08	0.415 ± 0.092	0.392 ± 0.093
100 µM, coculture fibroblast: Hs5	0.842 ± 0.014	0.854 ± 0.034	0.8 ± 0.017	0.765 ± 0.0088	0.692 ± 0.014	0.666 ± 0.01	0.639 ± 0.014	0.617 ± 0.0044	0.6138 ± 0.0022
100 µM, coculture fibroblast: Hs27A	0.716 ± 0.045	0.649 ± 0.057	0.621 ± 0.059	0.645 ± 0.06	0.538 ± 0.077	0.543 ± 0.092	0.512 ± 0.095	0.505 ± 0.098	0.478 ± 0.071
100 µM, coculture fibroblast: Hs343T	0.811 ± 0.025	0.8068 ± 0.0037	0.736 ± 0.011	0.6819 ± 0.0041	0.634 ± 0.0034	0.60514 ± 0.00043	0.5535 ± 0.0039	0.525 ± 0.009	0.5 ± 0.016
100 µM, coculture fibroblast: WS1	0.8287 ± 0.0056	0.727 ± 0.012	0.7014 ± 0.0059	0.631 ± 0.014	0.581 ± 0.0094	0.542 ± 0.0086	0.5053 ± 0.0046	0.463 ± 0.015	0.446 ± 0.0082
